The supplement of paper PMC10849652
The other results are listed elsewhere or left out.

The chains behind the UniProt entries cited, without tags or fusion partners. Where a name states a change or a piece, a line headed by the entry shows the natural chain unless it says otherwise.
UniProt Q8IZ13: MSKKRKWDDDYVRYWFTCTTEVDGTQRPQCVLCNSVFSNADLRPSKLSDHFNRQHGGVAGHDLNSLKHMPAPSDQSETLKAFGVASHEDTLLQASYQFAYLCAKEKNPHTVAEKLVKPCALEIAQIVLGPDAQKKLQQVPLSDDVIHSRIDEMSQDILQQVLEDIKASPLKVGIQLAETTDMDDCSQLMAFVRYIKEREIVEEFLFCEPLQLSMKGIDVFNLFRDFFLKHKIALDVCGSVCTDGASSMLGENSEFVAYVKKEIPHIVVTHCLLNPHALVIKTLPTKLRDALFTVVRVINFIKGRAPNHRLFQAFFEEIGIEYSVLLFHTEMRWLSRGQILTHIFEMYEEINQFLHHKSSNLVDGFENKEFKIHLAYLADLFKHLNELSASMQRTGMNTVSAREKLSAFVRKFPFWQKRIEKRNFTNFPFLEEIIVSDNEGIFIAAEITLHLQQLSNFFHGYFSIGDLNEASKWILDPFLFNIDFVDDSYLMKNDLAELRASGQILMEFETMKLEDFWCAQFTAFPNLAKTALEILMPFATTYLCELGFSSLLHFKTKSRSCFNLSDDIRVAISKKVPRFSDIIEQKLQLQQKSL
UniProt Q96QU8: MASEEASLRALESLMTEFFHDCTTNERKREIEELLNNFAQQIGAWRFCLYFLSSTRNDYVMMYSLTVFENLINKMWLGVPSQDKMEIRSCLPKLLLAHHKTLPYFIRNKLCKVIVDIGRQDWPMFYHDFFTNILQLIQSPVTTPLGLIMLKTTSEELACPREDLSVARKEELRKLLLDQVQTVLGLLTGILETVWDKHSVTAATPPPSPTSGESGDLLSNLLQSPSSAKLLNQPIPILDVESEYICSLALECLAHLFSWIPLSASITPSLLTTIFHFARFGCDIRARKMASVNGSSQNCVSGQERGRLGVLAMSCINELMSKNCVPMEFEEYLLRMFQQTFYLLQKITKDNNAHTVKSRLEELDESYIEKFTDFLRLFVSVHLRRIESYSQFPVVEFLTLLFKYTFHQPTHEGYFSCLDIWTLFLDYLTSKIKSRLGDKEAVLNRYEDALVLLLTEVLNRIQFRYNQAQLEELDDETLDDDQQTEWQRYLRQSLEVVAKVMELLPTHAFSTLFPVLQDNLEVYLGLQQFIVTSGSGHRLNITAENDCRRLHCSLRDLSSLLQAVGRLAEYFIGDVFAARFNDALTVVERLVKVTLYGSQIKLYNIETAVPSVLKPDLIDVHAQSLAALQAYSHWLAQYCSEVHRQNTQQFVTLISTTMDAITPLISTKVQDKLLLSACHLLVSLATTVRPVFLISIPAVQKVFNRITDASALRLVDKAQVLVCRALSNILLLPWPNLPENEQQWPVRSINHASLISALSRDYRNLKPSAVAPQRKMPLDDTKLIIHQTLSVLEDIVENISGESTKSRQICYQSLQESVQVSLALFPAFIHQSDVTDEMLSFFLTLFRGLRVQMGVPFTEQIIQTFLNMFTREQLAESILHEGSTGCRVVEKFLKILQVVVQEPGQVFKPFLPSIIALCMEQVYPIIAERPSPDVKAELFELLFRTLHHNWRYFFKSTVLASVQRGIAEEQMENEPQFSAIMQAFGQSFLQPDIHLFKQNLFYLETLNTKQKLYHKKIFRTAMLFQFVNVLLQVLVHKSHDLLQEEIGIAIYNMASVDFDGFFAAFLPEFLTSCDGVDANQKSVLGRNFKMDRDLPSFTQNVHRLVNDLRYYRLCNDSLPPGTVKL
UniProt O43167: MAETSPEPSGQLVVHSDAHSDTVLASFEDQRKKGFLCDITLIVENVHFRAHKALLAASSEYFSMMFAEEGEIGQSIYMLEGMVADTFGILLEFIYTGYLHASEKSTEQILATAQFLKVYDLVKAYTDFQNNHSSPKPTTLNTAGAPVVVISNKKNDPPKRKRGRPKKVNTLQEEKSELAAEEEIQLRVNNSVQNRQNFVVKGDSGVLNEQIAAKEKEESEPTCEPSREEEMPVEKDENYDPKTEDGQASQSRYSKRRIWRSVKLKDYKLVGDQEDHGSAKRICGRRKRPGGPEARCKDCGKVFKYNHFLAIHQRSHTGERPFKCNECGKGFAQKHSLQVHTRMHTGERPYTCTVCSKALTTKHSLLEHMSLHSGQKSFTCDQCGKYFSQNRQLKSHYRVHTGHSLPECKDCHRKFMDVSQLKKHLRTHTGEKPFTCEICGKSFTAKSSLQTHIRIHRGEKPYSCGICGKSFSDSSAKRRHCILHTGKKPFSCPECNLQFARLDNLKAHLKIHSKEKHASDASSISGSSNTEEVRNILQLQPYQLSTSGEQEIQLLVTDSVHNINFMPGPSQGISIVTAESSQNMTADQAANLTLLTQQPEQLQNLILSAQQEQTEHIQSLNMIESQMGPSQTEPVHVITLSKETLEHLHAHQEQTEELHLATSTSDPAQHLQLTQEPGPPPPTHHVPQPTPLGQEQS
UniProt P58557: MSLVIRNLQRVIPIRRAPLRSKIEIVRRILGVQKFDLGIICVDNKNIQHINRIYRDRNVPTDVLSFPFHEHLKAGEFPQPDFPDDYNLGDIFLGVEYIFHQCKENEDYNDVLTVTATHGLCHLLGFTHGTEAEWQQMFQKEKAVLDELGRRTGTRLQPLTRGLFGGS
UniProt Q8N680: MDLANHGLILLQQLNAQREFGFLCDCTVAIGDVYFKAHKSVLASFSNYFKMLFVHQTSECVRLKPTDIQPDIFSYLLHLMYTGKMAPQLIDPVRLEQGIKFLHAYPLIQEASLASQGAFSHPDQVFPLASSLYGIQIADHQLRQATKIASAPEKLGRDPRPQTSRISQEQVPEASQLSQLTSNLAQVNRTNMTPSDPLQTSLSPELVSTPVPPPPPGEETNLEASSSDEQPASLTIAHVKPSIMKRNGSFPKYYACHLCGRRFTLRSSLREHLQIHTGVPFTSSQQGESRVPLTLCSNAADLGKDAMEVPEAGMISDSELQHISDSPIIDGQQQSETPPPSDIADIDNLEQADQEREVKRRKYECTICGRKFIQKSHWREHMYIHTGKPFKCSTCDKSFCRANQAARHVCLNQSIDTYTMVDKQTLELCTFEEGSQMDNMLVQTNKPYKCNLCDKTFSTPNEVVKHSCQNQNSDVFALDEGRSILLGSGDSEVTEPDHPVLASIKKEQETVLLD
UniProt Q68DK2: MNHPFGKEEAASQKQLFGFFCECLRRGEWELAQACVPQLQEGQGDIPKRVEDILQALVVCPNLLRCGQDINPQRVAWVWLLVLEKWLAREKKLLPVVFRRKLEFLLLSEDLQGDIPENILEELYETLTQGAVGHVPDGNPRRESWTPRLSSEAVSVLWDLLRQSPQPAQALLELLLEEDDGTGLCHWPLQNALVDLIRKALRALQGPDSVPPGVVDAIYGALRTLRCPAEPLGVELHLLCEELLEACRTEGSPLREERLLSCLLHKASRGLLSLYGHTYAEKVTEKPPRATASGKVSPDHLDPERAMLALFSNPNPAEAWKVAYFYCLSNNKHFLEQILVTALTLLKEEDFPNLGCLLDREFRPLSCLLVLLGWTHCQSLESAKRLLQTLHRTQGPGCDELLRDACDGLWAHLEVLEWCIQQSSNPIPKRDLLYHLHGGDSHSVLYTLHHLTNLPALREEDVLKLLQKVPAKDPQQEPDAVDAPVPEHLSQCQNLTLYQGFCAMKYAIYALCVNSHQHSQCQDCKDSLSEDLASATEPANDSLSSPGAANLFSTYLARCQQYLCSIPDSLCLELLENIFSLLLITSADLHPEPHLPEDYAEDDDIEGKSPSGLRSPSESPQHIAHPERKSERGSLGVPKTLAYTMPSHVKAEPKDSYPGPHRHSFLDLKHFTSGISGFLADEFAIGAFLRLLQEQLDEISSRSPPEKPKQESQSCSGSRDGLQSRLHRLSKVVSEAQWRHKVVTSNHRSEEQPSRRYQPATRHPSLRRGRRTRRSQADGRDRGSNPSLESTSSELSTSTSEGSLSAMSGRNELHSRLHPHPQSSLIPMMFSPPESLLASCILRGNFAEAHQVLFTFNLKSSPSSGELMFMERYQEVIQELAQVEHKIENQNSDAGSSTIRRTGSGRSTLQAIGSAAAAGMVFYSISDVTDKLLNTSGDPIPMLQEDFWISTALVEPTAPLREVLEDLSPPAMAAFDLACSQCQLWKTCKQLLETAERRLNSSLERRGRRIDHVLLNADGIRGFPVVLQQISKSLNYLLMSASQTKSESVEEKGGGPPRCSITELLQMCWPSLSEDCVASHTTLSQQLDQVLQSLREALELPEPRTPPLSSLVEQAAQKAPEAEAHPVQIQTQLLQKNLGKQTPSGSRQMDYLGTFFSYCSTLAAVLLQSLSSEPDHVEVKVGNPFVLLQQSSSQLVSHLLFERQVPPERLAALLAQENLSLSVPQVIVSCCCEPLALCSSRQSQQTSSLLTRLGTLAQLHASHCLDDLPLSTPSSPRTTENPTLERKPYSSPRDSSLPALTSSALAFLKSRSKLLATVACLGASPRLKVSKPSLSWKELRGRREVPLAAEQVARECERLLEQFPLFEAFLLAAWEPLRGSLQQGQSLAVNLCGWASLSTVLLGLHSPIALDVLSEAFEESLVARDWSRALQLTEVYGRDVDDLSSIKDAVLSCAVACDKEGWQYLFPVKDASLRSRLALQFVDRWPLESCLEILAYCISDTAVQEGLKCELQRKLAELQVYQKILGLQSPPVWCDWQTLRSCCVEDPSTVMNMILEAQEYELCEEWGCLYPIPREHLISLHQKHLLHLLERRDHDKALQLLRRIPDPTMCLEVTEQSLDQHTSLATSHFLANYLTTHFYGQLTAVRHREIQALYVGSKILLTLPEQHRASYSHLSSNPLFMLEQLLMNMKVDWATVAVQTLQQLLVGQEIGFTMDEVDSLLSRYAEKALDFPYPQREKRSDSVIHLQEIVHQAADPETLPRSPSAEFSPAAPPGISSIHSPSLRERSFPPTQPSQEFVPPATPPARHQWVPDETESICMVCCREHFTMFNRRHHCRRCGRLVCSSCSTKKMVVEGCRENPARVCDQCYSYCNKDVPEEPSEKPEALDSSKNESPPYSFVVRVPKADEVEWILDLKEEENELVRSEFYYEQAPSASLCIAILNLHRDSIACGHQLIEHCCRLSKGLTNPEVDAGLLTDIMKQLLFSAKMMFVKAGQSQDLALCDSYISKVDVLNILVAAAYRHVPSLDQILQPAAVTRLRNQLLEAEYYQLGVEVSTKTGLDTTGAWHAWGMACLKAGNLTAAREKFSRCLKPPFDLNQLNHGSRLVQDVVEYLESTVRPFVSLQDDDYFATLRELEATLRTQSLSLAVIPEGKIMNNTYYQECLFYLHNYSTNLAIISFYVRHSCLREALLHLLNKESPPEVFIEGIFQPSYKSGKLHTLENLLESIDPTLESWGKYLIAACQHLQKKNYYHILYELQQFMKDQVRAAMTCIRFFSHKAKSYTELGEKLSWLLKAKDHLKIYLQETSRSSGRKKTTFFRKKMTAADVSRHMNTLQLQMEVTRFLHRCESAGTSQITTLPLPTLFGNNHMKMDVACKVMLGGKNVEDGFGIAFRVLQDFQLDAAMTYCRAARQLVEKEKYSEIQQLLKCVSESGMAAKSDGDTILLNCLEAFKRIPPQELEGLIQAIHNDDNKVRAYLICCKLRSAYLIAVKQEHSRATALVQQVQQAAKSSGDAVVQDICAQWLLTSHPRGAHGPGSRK
UniProt Q9NPG8: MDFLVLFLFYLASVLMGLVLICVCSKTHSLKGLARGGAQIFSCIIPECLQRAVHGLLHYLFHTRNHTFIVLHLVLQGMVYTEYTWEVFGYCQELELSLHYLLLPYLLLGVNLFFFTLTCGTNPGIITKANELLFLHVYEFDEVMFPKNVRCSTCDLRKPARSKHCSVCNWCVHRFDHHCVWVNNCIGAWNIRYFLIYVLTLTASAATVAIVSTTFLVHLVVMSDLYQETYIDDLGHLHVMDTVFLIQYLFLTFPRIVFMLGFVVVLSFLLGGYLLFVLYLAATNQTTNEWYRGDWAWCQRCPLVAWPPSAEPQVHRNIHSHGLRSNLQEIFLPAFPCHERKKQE
UniProt Q96K21: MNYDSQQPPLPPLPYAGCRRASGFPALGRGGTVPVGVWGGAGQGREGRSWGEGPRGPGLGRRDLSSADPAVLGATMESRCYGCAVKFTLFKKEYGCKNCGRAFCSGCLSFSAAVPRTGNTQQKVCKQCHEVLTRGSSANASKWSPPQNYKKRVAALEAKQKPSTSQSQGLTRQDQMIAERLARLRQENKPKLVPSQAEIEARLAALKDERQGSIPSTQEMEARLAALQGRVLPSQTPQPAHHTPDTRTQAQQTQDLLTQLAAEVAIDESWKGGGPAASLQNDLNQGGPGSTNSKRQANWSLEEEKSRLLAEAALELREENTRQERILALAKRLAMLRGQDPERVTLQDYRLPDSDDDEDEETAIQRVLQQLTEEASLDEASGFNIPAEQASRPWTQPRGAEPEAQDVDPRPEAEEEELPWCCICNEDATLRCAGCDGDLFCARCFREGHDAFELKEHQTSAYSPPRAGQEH

Key:
Assay in all cases: log2 fold change, soluble protein after heating vs DMSO (PISA); higher = thermal stabilisation; K562 lysate, 10 uM; active = over 0.2 and 3.5 SD of the protein, either way, in both replicates (recomputed)
vemurafenib = compound: CCCS(=O)(=O)Nc1ccc(F)c(C(=O)c2c[nH]c3ncc(-c4ccc(Cl)cc4)cc23)c1F [vemurafenib]
How it was run: (§1)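 Log-two fold change in thermal stability relative to solvent controls is reported from duplicates. For each sample, crude K562 extract from dounce-homogenised pellets in PBS pH 7.4 with 1 mM MgCl2, at 1 mg/mL protein, was treated with 10 μM compound for 30 min. Aliquots heated for 3 min across 48°C-58°C were pooled, brought to 0.5% NP-40 at 4°C and cleared at 21,000xg for 90 min. The supernatant was quantified by TMTpro 16plex LC-MS/MS with channel sums equalised.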

[1] = compound: CCCS(=O)(=O)Nc1ccc(F)c(C(=O)c2c[nH]c3ncc(Cl)cc23)c1F
How it was run: as §1

barasertib = compound: CCN(CCCOc1ccc2c(Nc3cc(CC(=O)Nc4cccc(F)c4)[nH]n3)ncnc2c1)CCOP(=O)(O)O [barasertib]
How it was run: as §1

[2] = compound: CC[C@@H]1C(=O)N(C)c2cnc(Nc3ccc(C(=O)NC4CCN(C)CC4)cc3OC)nc2N1C1CCCC1
How it was run: as §1

volasertib = compound: CC[C@@H]1C(=O)N(C)c2cnc(Nc3ccc(C(=O)N[C@H]4CC[C@H](N5CCN(CC6CC6)CC5)CC4)cc3OC)nc2N1C(C)C [volasertib]
How it was run: as §1

[3] = compound: CCn1cc(-c2ccnc3[nH]c(-c4cccc(CN(C)C)c4)cc23)c(-c2ccc(NC(=O)N(C)C)cc2)n1
How it was run: as §1

[4] = compound: CN1CCC(CNc2ccc3ncc(-c4cccc(OC(F)(F)F)c4)n3n2)CC1
How it was run: as §1

saracatinib = compound: CN1CCN(CCOc2cc(OC3CCOCC3)c3c(Nc4c(Cl)ccc5c4OCO5)ncnc3c2)CC1 [saracatinib]
How it was run: as §1

sotrastaurin = compound: CN1CCN(c2nc(C3=C(c4c[nH]c5ccccc45)C(=O)NC3=O)c3ccccc3n2)CC1 [sotrastaurin]
How it was run: as §1

[5] = compound: CCn1c(C(=O)N(C2CC2)C2CC2)cc2c3c(ncn3C)c(Nc3cc(C)n(C)n3)nc21
How it was run: as §1

Measured: log2 fold change

YWHAZ (UniProt E7ESK7)
inactive: vemurafenib -0.095 | [1] 0.034 | barasertib 0.146 | [2] 0.134 | volasertib 0.061 | [3] 0.114 | [4] 0.134 | saracatinib -0.018 | sotrastaurin -0.118

YWHAE (UniProt P62258)
inactive: vemurafenib -0.002 | [1] -0.006 | barasertib 0.009 | [2] 0.033 | volasertib 0.024 | [5] 0.017 | [3] 0.01 | [4] 0.035 | saracatinib -0.015 | sotrastaurin 0.022

ZBTB10 (UniProt Q96DT7)
inactive: vemurafenib -0.006 | [1] -0.084 | barasertib 0.132 | [2] 0.065 | volasertib -0.015 | [5] -0.008 | [3] -0.023 | [4] -0.063 | saracatinib 0.119 | sotrastaurin 0.07

ZBTB7A (UniProt O95365)
inactive: vemurafenib 0.104 | [1] 0.138 | barasertib 0.004 | [2] 0.107 | volasertib 0.044 | [5] 0.055 | [3] -0.068 | [4] 0.02 | saracatinib -0.027 | sotrastaurin -0.106

ZBED8 (UniProt Q8IZ13)
inactive: vemurafenib -0.013 | [1] 0.019 | barasertib 0.006 | [2] 0.058 | volasertib -0.013 | [5] -0.051 | saracatinib -0.067 | sotrastaurin -0.018

ZFYVE27 isoform 2 (UniProt Q5T4F4)
inactive: vemurafenib 0.004 | [1] 0.102 | barasertib 0.016 | [2] -0.068 | volasertib -0.001 | [5] -0.041 | saracatinib 0.109 | sotrastaurin 0.061

XPOT (UniProt O43592)
inactive: vemurafenib -0.023 | [1] 0.014 | barasertib 0.011 | [2] -0.097 | volasertib -0.047 | [5] 0.036 | [3] -0.065 | [4] -0.001 | saracatinib -0.005 | sotrastaurin 0.002

XPO6 (UniProt Q96QU8)
inactive: vemurafenib 0.033 | [1] 0.013 | barasertib 0.062 | [2] -0.03 | volasertib -0.058 | [5] -0.049 | [3] 0.448 | [4] 0.071 | saracatinib -0.007 | sotrastaurin 0

YAF2 isoform 5 (UniProt Q8IY57)
inactive: vemurafenib 0.171 | [1] 0.011 | barasertib -0.009 | [2] 0.147 | volasertib 0.03 | [5] 0.061 | [3] 0.102 | [4] -0.072 | saracatinib 0.021 | sotrastaurin 0.013

ZCCHC4 (UniProt Q9H5U6)
inactive: vemurafenib 0.136 | [2] -0.226 | [3] -0.146 | [4] 0.225 | saracatinib -0.087

ZBTB24 (UniProt O43167)
inactive: [1] 0.04 | barasertib -0.01 | [2] 0.051 | volasertib -0.141 | [5] -0.047 | [3] -0.026 | [4] -0.032 | saracatinib -0.005 | sotrastaurin 0.023

Two records drawn at random from those above, as already listed:
YAF2 isoform 5 (UniProt Q8IY57)
inactive: vemurafenib 0.171 | [1] 0.011 | barasertib -0.009 | [2] 0.147 | volasertib 0.03 | [5] 0.061 | [3] 0.102 | [4] -0.072 | saracatinib 0.021 | sotrastaurin 0.013

XPO6 (UniProt Q96QU8)
inactive: vemurafenib 0.033 | [1] 0.013 | barasertib 0.062 | [2] -0.03 | volasertib -0.058 | [5] -0.049 | [3] 0.448 | [4] 0.071 | saracatinib -0.007 | sotrastaurin 0

Next results

ZC3H12C isoform 2 (UniProt Q9C0D7)
inactive: [1] -0.138 | barasertib 0.106 | volasertib -0.09 | [5] 0.148 | [3] -0.013 | [4] 0.139 | saracatinib -0.17 | sotrastaurin -0.012

XRCC3 (UniProt O43542)
inactive: vemurafenib 0.032 | barasertib 0.012 | [5] 0.109 | [3] 0.029 | [4] 0.044 | saracatinib 0.025 | sotrastaurin 0.052

ZADH2 (UniProt Q8N4Q0)
inactive: vemurafenib 0.06 | [1] -0.008 | barasertib 0.017 | volasertib 0.311 | [5] -0.05 | [3] -0.076 | [4] 0.045 | saracatinib 0.035 | sotrastaurin -0.021

ZFP92 (UniProt A6NM28)
inactive: vemurafenib 0.166 | [2] 0.066

YBEY (UniProt P58557)
inactive: vemurafenib -0.119 | [2] -0.054 | saracatinib -0.058

ZBTB2 (UniProt Q8N680)
inactive: vemurafenib 0.05 | barasertib -0.198 | [2] 0.061 | [5] 0.023 | [3] 0.139 | [4] -0.062 | saracatinib 0.004 | sotrastaurin 0.063

ZBTB48 (UniProt P10074)
inactive: vemurafenib -0.07 | saracatinib 0.005

ZBTB43 (UniProt O43298)
inactive: vemurafenib -0.023 | [1] -0.009 | [2] 0.051 | volasertib 0.036 | [5] 0 | saracatinib -0.01 | sotrastaurin -0.02

ZFYVE26 (UniProt Q68DK2)
inactive: vemurafenib -0.135 | [1] 0.072 | barasertib -0.151 | volasertib 0 | [5] 0.184 | sotrastaurin -0.073

ZDHHC4 (UniProt Q9NPG8)
inactive: [1] -0.106 | barasertib -0.047 | volasertib -0.074 | [5] 0.101 | [3] 0.113 | [4] 0.013 | saracatinib 0.183 | sotrastaurin -0.002

ZFAND5 (UniProt O76080)
inactive: vemurafenib -0.02 | [1] -0.128 | barasertib -0.005 | volasertib -0.055 | [5] 0.047 | [3] -0.037 | [4] 0.048 | saracatinib -0.005 | sotrastaurin -0.154

ZBTB5 (UniProt O15062)
inactive: vemurafenib 0.109 | [2] 0.063 | [5] 0.004 | saracatinib -0.006 | sotrastaurin 0.066

ZC3H7A (UniProt Q8IWR0)
inactive: vemurafenib -0.021 | barasertib 0.004 | [2] 0.057 | [5] 0.057 | [3] -0.121 | [4] -0.229 | saracatinib -0.044 | sotrastaurin -0.046

ZBTB1 (UniProt Q9Y2K1)
inactive: [1] -0.014 | barasertib 0.197 | [2] 0.078 | volasertib 0.256 | [5] -0.063 | [3] -0.007 | [4] -0.087

ZDHHC20 (UniProt Q5W0Z9)
inactive: vemurafenib 0.015 | [1] 0.007 | barasertib 0.169 | [2] -0.006 | volasertib -0.046 | [3] 0.067 | [4] -0.02 | saracatinib -0.003 | sotrastaurin 0.076

ZFYVE19 isoform 3 (UniProt Q96K21)
inactive: [1] 0.048 | barasertib -0.037 | volasertib -0.231

ZBTB40 (UniProt Q9NUA8)
inactive: vemurafenib 0.06 | [1] -0.076 | volasertib 0.029 | [5] -0.014 | [3] -0.127 | [4] 0.095 | saracatinib -0.017 | sotrastaurin -0.012

YAE1 (UniProt Q9NRH1)
inactive: vemurafenib 0.029 | barasertib 0.097 | [2] 0.017 | [5] -0.021 | [3] 0.022 | [4] 0.069 | saracatinib -0.017 | sotrastaurin 0.038

ZEB1 isoform 2 (UniProt P37275)
inactive: vemurafenib 0.029 | [1] 0.058 | barasertib 0.245 | volasertib 0.009 | [5] 0.047 | [3] -0.015 | [4] -0.201 | saracatinib 0.115 | sotrastaurin 0.084

ZBTB11 (UniProt O95625)
inactive: vemurafenib 0.141 | [1] -0.31 | volasertib 0.045 | [3] -0.019 | [4] -0.134 | sotrastaurin 0.029

XRCC1 (UniProt F5H8D7)
inactive: vemurafenib 0.147 | barasertib -0.051 | [2] -0.101 | saracatinib -0.121

ZFP64 isoform 5 (UniProt Q9NTW7)
inactive: [1] 0.113 | barasertib 0.01 | [2] 0.023 | volasertib 0.179 | [5] 0.062 | [3] -0.086 | [4] 0.179 | sotrastaurin -0.113
